These are yes or no findings as the source states them, for the method shown. For some assays here: Binding seen in cells or lysates may run through a third protein. Some binding calls cover weakened binding; strength is not graded here. Where a sequence is shown, tags or fusion partners need not be part of it.
Columns and labels:
[1] = target: T1, AT2G17540.2 TRBIP2 (Arabidopsis thaliana); assay: IP-MS
T1 sequence: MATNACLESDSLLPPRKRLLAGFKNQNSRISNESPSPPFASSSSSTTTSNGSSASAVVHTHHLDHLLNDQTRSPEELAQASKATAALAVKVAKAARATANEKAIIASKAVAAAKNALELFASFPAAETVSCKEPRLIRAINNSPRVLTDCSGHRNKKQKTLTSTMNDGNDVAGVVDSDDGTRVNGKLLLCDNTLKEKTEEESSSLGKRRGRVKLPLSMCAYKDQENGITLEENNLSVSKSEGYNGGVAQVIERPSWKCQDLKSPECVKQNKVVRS

Protein sequences, listed by entry. Tags and fused reporters are not part of them.
UniProt Q8GUI6: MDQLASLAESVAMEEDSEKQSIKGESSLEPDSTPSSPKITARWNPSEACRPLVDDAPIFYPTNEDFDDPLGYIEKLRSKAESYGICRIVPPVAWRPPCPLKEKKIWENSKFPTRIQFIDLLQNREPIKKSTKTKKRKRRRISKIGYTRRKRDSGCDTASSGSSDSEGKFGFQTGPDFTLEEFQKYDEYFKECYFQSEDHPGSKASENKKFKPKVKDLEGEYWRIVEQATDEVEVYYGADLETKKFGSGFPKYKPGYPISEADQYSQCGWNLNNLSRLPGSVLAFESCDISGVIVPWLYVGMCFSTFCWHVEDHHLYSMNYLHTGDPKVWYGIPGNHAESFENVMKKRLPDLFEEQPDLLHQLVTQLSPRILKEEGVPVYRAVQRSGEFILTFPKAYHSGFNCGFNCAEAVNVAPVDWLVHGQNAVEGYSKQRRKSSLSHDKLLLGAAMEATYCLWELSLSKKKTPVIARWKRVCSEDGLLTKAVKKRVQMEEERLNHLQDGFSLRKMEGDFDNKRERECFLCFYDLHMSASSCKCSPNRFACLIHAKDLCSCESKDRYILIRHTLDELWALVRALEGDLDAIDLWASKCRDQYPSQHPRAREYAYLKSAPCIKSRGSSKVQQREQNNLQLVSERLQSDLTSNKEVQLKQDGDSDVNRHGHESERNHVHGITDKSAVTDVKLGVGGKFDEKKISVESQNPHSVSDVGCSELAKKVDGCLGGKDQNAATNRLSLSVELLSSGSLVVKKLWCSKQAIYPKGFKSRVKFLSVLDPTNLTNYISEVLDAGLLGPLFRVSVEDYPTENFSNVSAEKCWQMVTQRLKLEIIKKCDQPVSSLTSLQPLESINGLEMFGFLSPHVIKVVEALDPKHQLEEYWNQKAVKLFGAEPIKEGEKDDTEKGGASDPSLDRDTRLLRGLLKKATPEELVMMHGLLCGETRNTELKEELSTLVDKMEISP

[2] = target: T2, AT4G35510.1 TRBIP1 (Arabidopsis thaliana); assay: IP-MS
T2 sequence: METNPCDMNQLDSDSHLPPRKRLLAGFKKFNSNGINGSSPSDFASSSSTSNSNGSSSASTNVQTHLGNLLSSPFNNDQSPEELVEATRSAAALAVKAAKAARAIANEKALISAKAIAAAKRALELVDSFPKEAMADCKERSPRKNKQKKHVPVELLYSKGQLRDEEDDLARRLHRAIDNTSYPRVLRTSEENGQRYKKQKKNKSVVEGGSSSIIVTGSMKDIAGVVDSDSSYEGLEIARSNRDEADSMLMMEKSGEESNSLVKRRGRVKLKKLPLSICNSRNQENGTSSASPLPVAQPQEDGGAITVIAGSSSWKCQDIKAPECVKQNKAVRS

[3] = target: Myc-JMJ14 (Arabidopsis thaliana) (UniProt Q8GUI6); assay: co-IP of FIG. 22A
[4] = target: AT4G20400.1 JMJ14 (Arabidopsis thaliana) (UniProt Q8GUI6); assay: IP-MS, pTRB:TRB-FLAG lines
[5] = target: Myc-JMJ14 (Arabidopsis thaliana) (UniProt Q8GUI6); assay: co-IP (FLAG-IP, anti-Myc Western), F2 crossed lines
[6] = target: T3, HD2A (Arabidopsis thaliana) (UniProt Q9FVE6); assay: IP-MS, pHD2B:HD2B-FLAG line
T3 sequence: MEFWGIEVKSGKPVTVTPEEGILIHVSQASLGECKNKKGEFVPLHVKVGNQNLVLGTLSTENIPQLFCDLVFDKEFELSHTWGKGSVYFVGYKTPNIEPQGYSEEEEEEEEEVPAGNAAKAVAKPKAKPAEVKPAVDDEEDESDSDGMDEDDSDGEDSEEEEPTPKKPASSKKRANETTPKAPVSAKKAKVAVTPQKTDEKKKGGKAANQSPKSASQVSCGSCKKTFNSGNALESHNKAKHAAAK

[7] = target: T4, HD2C (Arabidopsis thaliana) (UniProt Q9LZR5); assay: IP-MS, pHD2B:HD2B-FLAG line
T4 sequence: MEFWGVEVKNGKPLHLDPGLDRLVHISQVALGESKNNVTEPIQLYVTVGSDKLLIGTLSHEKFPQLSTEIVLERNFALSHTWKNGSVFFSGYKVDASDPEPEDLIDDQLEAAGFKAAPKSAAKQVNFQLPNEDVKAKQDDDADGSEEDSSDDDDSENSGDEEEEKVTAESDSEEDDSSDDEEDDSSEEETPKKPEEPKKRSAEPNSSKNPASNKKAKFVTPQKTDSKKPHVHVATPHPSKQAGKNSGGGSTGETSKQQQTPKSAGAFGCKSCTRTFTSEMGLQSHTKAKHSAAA

[8] = target: T5, HD2D (Arabidopsis thaliana) (UniProt Q9M4T3); assay: IP-MS, pHD2B:HD2B-FLAG line
T5 sequence (looked up): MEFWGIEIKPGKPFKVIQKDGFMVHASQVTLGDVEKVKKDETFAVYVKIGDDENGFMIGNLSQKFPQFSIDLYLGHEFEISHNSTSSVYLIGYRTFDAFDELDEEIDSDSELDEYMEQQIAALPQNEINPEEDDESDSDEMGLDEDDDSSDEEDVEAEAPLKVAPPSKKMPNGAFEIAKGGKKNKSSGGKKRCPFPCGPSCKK

Measured: binding

B1: FLAG-TRB2 (protein, not shown: small tags and cut ends)
chain: MGAPKQKWTPEEEAALKAGVLKHGTGKWRTILSDSEFSLILKSRSNVDLKDKWRNISVTALWGSRKKAKLALKRTPPGTKQDDNNTALTIVALTNDDERAKPTSPGGSGGGSPRTCASKRSITSLDKIIFEAITNLRELRGSDRTSIFLYIEENFKTPPNMKRHVAVRLKHLSSNGTLVKIKHKYRFSSNFIPAGARQKAPQLFLEGNNKKDPTKPEENGANSLTKFRVDGELYMIKGMTAQEAAEAAARAVAEAEFAITEAEQAAKEAERAEAEAEAAQIFAKAAMKALKFRIRNHPW
binds: [1] | [2] | [3] | [4] | [5]

B2: HD2B-FLAG (enzyme, not shown: small tags and cut ends)
chain: MEFWGVAVTPKNATKVTPEEDSLVHISQASLDCTVKSGESVVLSVTVGGAKLVIGTLSQDKFPQISFDLVFDKEFELSHSGTKANVHFIGYKSPNIEQDDFTSSDDEDVPEAVPAPAPTAVTANGNAGAAVVKADTKPKAKPAEVKPAEEKPESDEEDESDDEDESEEDDDSEKGMDVDEDDSDDDEEEDSEDEEEEETPKKPEPINKKRPNESVSKTPVSGKKAKPAAAPASTPQKTEEKKKGGHTATPHPAKKGGKSPVNANQSPKSGGQSSGGNNNKKPFNSGKQFGGSNNKGSNKGKGKGRA
binds: [6] | [7] | [8]
